# Values joined by “and” are separate entries in the source; they are usually repeats but may differ in a detail not shown here. Equal values may be shown once. Among all 400,000 compounds or so, about 5,500 (1.4%) were called active. Inconclusive means that the source gave no clear call. Such entries were picked first, then a sample of the others. The call rests on the fitted dose curve; in most records, active means well fitted cell-killing curve with a large enough effect; inconclusive means small, poorly fitted or top-dose-only effect, or effect the other way; inactive means flat fitted curve, though single readings scatter. A potency beside an inconclusive call is a rough fit, not a confirmed value.
# Assay: qHTS assay for MDR1-selective chemotherapeutics: Primary screen using the parental adenocarcinoma cell KB-3-1; further: nearly all actives have a fitted effect of over 60% in size
# Details: KB-3-1 viability, CellTiter-Glo ATP luminescence, 72 h; activity change, negative = cytotoxic: at 46.1 µM (top of the series)
# Outline: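 Multi-concentration cytotoxicity screen in KB-3-1 cells grown in DMEM lacking phenol red with 10% FBS. After 72 h at 37 °C with compound, ATP-dependent luminescence was recorded.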
# On the % scale 0 is the no-effect control and ±100 the full control effect; potency means the concentration at half of the fitted maximal effect.
SMILES,Potency,"activity change, negative = cytotoxic"
Cc1ccc(C)c(-c2csc(N)c2C(=O)OC(C)C)c1,"inconclusive: 23.1 µM [cytotoxic, single point]",
O=C(OCc1cccc(F)c1)c1ccc2c(c1)-c1ccccc1C2=O,,inactive: 0.0045%
O=C(Nc1ccccn1)c1cc(-c2ccc(Cl)s2)nc2ccccc12,"inconclusive: 29.1 µM [cytotoxic, single point]",
Cn1nc(C(=O)Nc2ccc(S(=O)(=O)Nc3ncccn3)cc2)ccc1=O,,inactive: -1.16%
O=C(NCCCN1CCOCC1)c1ccc(Sc2cccc(Cl)c2)c([N+](=O)[O-])c1,"inconclusive: 29.1 µM [cytotoxic, single point]",
CCNCCC(CCC(C)C)c1ccc2c(c1)OCO2 (configuration not stated),,inactive: -25.5%
CC(=O)c1c(C)[nH]c(C(=O)OCC(=O)Nc2ccccc2Cl)c1C,active: 20.6 µM,
O=C(O)c1ccc(/C=C(\c2nc3ccccc3[nH]2)c2nc3ccccc3s2)cc1,"inconclusive: 29.1 µM [cytotoxic, single point]",
Cc1cccc(N2CCN(Cc3cn(C)nc3-c3ccccc3F)CC2)n1,active: 5.8 µM,
C/C(=N\NC(=O)c1c([N+](=O)[O-])c(C)nn1C)c1ccc(NC(=O)C2CCCC2)cc1,active: 0.461 µM,
COc1ccc(-c2csc3ncn(CC(=O)N4CCOCC4)c(=O)c23)cc1,"inconclusive: 18.4 µM [rising, partial curve, poor fit]",
CCCCCCCn1c2c(c(=N)c3c1CCC3)CCCC2,active: 0.58 µM,
CCOc1ccc(C(=O)NCCCN2CCOCC2)cc1OCC,,inactive: 3%
CN(C)CCN(C(=O)/C=C/c1cccs1)c1nc2ccc(Br)cc2s1,,inactive: -0.751%
CC(C)OCCCNC(=O)COCC(=O)Nc1ccc(OCCc2ccccc2)cc1,,inactive: -5.34%
CC(=O)c1ccc(OC(C)C)c(CSC(=N)N)c1,"inconclusive: 6.51 µM [cytotoxic, partial curve, poor fit]",
c1ccc(Cn2nnc(CNc3ccccc3)c2-c2c(CNc3ccccc3)nnn2Cc2ccccc2)cc1,,inactive: -14.9%
O=C(O)c1ccc(CN2C(=O)c3cccc4c([N+](=O)[O-])ccc(c34)C2=O)cc1,"inconclusive: 29.1 µM [cytotoxic, single point]",
CC(C)[C@H](NC(=O)c1ccccc1)C(=O)OCC(=O)c1ccc2c(c1)NC(=O)CO2,,inconclusive: 31.4%
CC(C)(C)NC(=O)C1C(c2ccc(C(F)(F)F)cc2)=Nc2ccccc2N1C(=O)c1cccc2ccccc12 (configuration not stated),"inconclusive: 29.1 µM [cytotoxic, single point]",
O=C(CC[C@H]1O[C@@H](n2ccc(=O)[nH]c2=O)[C@H](O)[C@@H]1O)NCCCc1ccccc1,,inactive: 0.0302%
CCOC(=O)c1cccc(NS(=O)(=O)c2cc(-c3cnc(C)o3)ccc2OC)c1,,inactive: 0.0337%
CC1CCC(C(C)C)C(OC(=O)Cn2c(-c3ccccc3)[n+](C)c3ccccc32)C1 (configuration not stated),active: 5.8 µM and active: 14.6 µM,
Cc1ccc([C@H]2C[C@H](O)[C@@H](n3cc(-c4ccc(F)cc4)nn3)CN2C(=O)c2cccs2)cc1,"inconclusive: 20.6 µM [cytotoxic, single point]",

# Nothing new here: an excerpt of the list.
SMILES,Potency,"activity change, negative = cytotoxic"
Cn1nc(C(=O)Nc2ccc(S(=O)(=O)Nc3ncccn3)cc2)ccc1=O,,inactive: -1.16%
O=C(NCCCN1CCOCC1)c1ccc(Sc2cccc(Cl)c2)c([N+](=O)[O-])c1,"inconclusive: 29.1 µM [cytotoxic, single point]",

# The list goes on:

SMILES,Potency,"activity change, negative = cytotoxic"
CCCCNC(=O)C(CC)Sc1nnc(-c2ccc(F)cc2)c(-c2ccc(F)cc2)n1 (configuration not stated),,inactive: 8.84%
c1ccc2c(NC3C4CC5CC(C4)CC3C5)nc(N3CCOCC3)nc2c1 (configuration not stated),"inconclusive: 18.4 µM [cytotoxic, single point]",
O=C(c1ccccc1)c1ccc(N2CCOCC2)c(NC(=O)c2ccco2)c1,"inconclusive: 16.4 µM [cytotoxic, partial curve, poor fit]",
CC(C)Cn1c(=O)c(C(=O)N/N=C/c2cccc(F)c2)c(O)c2ccccc21,active: 11.6 µM,
COc1ccc(CCNc2oc(COc3ccccc3Cl)nc2C#N)cc1OC,,inactive: -1.99%
Cc1cc(C(=O)N/N=C/c2ccc(-c3cccc(Br)c3)o2)n[nH]1,,inactive: 1.01%
Cc1cccc(NC(=O)Cc2coc3ccc4ccccc4c23)n1,,inactive: 4.51%
Cc1cc(/C=C\c2ccccc2)nc2ccccc12,"inconclusive: 7.31 µM [cytotoxic, partial curve, poor fit]",
Cc1ccc(-c2nn(-c3ccccc3)cc2C=O)o1,"inconclusive: 23.1 µM [cytotoxic, single point]",
Cc1ncsc1C(=O)Nc1nc2c(s1)CCCC2,active: 16.4 µM,
Cn1nc(C(C)(C)C)cc1N1C(=O)CCC1(C)C(=O)NC1CCCCC1 (configuration not stated),,inactive: 0.0564%
S=C1SCN(Cc2cccs2)CN1Cc1cccs1,"inconclusive: 29.1 µM [cytotoxic, single point]",
COc1cccc(NC(=O)Nc2cccn(Cc3ccc(C)cc3)c2=O)c1,"inconclusive: 18.4 µM [cytotoxic, single point]",
COc1cc(NC(=O)c2cccc([N+](=O)[O-])c2)ccc1NC(=O)c1cc2ccccc2o1,"inconclusive: 18.4 µM [cytotoxic, single point]",
CC1(c2ccc(Cl)cc2)NC(=O)N(CC(=O)N2CCN(S(=O)(=O)c3ccccc3)CC2)C1=O (configuration not stated),,inactive: -0.326%
CCc1c(C)c2ccccc2[nH]c1=O,active: 4.11 µM,
CC(=O)N1N=C(c2ccccc2)CC1c1cn(Cc2ccccc2)c2ccccc12 (configuration not stated),"inconclusive: 2.31 µM [cytotoxic, partial curve, poor fit]",
CCOC(=O)c1sc(NC(=O)CSc2nnc(-c3ccc(OC)cc3)n2CCOC)nc1C,"inconclusive: 0.224 µM [rising, full curve]",
COc1ccc(CNCCC(c2ccc(F)cc2)c2ccc(OC)cc2)cc1 (configuration not stated),active: 23.1 µM,
CCCCc1ccc(NC(=O)CSc2nc(=O)n(CCN(C)C)c3c2CCC3)cc1,"inconclusive: 32.6 µM [cytotoxic, single point]",
Cc1ccc(C(=O)NCC(=O)Nc2ccncc2)cc1C,"inconclusive: 14.6 µM [cytotoxic, partial curve, poor fit]",
N#Cc1ccc(OCC(=O)N(C2CCCCC2)C2CCS(=O)(=O)C2)cc1 (configuration not stated),,inactive: -16.4%
CC(=O)c1ccc(NC(=O)CN2C(=O)NC(C)(c3ccc4c(c3)OCCO4)C2=O)cc1 (configuration not stated),,inconclusive: -4.81%

# Source: PubChem BioAssay AID1347075 (National Center for Advancing Translational Sciences (NCATS), 2019)
